# PubChem BioAssay AID504847 (National Center for Advancing Translational Sciences (NCATS), 2011)
# By UniProt entry, the sequences of proteins in these tests, tags left out. Where a name states a change or a piece, a line headed by the entry shows the natural chain unless it says otherwise.
# UniProt P11473: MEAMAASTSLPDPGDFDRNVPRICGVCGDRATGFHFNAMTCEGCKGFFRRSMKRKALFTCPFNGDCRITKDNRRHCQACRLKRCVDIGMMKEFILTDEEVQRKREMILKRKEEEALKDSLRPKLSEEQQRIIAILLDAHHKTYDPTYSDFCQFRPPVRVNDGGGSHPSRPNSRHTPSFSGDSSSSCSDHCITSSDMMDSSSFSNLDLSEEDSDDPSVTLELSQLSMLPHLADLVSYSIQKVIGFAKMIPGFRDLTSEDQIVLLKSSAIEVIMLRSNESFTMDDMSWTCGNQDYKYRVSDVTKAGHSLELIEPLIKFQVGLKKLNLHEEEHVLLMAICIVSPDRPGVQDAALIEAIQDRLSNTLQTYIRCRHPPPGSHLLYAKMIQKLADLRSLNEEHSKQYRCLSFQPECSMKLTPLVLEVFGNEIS
# Hit rate of the full screen: of about 400,000 compounds, about 3,700 (0.93%) were called active. The inconclusive results got no clear call from the source; some entries with a clear call stand among them for comparison. Calls come from the whole dose curve; as a rule, active = well fitted inhibition curve with a large enough effect; inconclusive = small, poorly fitted or top-dose-only effect, or another doubt; inactive = no such curve, though single readings can be large or run the other way. A potency beside an inconclusive call is a rough fit, not a confirmed value.
# Target: Vitamin D3 receptor (Homo sapiens) (UniProt P11473)
# Experiment: Inhibitors of the vitamin D receptor (VDR): qHTS
# Details: VDR-SRC2-3 peptide fluorescence polarization, 2 h; max response, negative = inhibition: hits give low values
# How it was run: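 After 23 nl compound addition and a short centrifugation, plates sat for 2 hours at ambient temperature; polarization of fluorescence then indicated loss of VDR binding to peptide SRC2-3.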
# % is set by controls: 0 for no effect and ±100 for the full control effect; potency is the fitted concentration of half-maximal effect.
SMILES,"max response, negative = inhibition",Potency
O=C(COC(=O)c1cncc(Br)c1)Nc1nnc(-c2ccccc2)o1,inactive: 6.6%,–
COc1ccc(Nc2ccc(N3C(=O)CCCC3=O)cc2[N+](=O)[O-])cc1OC,inactive: -14.3%,–
COc1ccc(C2Nc3ccccc3C(=O)N2NC(C)=O)cc1OC (stereo unspecified),–,"inconclusive: 100 µM [inhibitor, single point]"
O=C(c1ccc[nH]1)N1O[C@@H]2C=C[C@H]1C2,inactive: -21.4%,–
COc1cccc(NC(=O)CSc2nc(O)c(C)c(=O)n2-c2ccc(C)cc2)c1,–,"inconclusive: 79.4 µM [inhibitor, partial curve]"
CCOC(=O)c1c(C)[nH]c(C(=O)OCc2ccccc2)c1C,inactive: 8.91%,–
O=c1cc(/C=C/c2ccccc2)oc2c1ccc1ccccc12,–,"inconclusive: 79.4 µM [inhibitor, single point]"
O=C(NNc1ccc(Cl)cc1)c1cccs1,–,"inconclusive: 39.8 µM [inhibitor, single point]"
O=C(NCc1ccccc1)c1ccc(C(=O)NCc2ccccc2)cc1,inactive: 0.466%,–
CCn1c(SCC(=O)OC2CCCCC2)nc2ccccc2c1=O,inactive: -12.9%,–
Cc1nc2cncnc2n(Cc2ccc(F)cc2)c1=O,–,"inconclusive: 100 µM [inhibitor, single point]"
CCOc1ccccc1C(=O)Oc1c(Sc2ccccc2)c(C)nn1C(C)(C)C,inactive: -25.1%,–
O=c1c2ccccc2nc2n1CCC2,inactive: -24%,–
COc1ccc2cc(C(=O)C3CCCN(C(=O)c4cc(=O)n(C)c(=O)n4C)C3)ccc2c1 (stereo unspecified),–,"inconclusive: 89.1 µM [inhibitor, single point]"
COc1ccccc1NS(=O)(=O)c1cc(NC(=O)c2sccc2C)ccc1N1CCCC1,–,active: 89.1 µM
COc1ccc(Cn2c(CNS(=O)(=O)c3ccc4c(c3)CCCC4)nc3cccnc32)cc1,inactive: 3.96%,–
C(=N\Nc1nn2cnnc2c2ccccc12)/c1ccco1,–,"inconclusive: 89.1 µM [inhibitor, partial curve, poor fit]"
O=C/C=C/c1c(-c2ccccc2)cc2oc3ccccc3cc1-2,–,active: 35.5 µM
CCOC(=O)n1c(=O)n(C)c2ccc(Cl)cc21,–,"inconclusive: 89.1 µM [inhibitor, single point]"
CCC(C)NCc1ccc(C(=O)OC)o1 (stereo unspecified),–,"inconclusive: 39.8 µM [inhibitor, single point]"
O=C(NNC(=S)NC(=O)c1ccc(Br)cc1)c1cccc([N+](=O)[O-])c1,–,"inconclusive: 39.8 µM [inhibitor, partial curve, poor fit]"

# Exported tab-delimited: entries from further up
SMILES	max response, negative = inhibition	Potency
COc1ccc2cc(C(=O)C3CCCN(C(=O)c4cc(=O)n(C)c(=O)n4C)C3)ccc2c1 (stereo unspecified)	–	inconclusive: 89.1 µM [inhibitor, single point]
C(=N\Nc1nn2cnnc2c2ccccc12)/c1ccco1	–	inconclusive: 89.1 µM [inhibitor, partial curve, poor fit]
